Part of at least one peptide drawing is inferred or uncertain, most often the ends. Some entries share one result that the patent states for a list of compounds.
Tests used:
[1] = system: TMPRSS2-Vero cells; assay type: cell-based; details: only in TMPRSS2-Vero cells, not Vero cells
[2] = molecular target: T1, TMPRSS2 (Homo sapiens, UniProt O15393); assay: Enzymatic fluorescence assay of probes with TMPRSS2; assay type: biochemical; set-up: expressed in transfected cells; host or cells: TMPRSS2-Vero cells
Procedure: Recombinant TMPRSS2 was added into the working solution and then diluted to a total of 100 μl with the same Tris-HCl buffer. The reaction mixture was incubated at 37° C. for 1 h for UV-Vis absorption and fluorescence measurement. The solution was excited at 405 nm, and the emission was collected from 430 nm to 800 nm.

By UniProt entry, the sequences of proteins in these tests, tags left out.
UniProt O15393, whole entry: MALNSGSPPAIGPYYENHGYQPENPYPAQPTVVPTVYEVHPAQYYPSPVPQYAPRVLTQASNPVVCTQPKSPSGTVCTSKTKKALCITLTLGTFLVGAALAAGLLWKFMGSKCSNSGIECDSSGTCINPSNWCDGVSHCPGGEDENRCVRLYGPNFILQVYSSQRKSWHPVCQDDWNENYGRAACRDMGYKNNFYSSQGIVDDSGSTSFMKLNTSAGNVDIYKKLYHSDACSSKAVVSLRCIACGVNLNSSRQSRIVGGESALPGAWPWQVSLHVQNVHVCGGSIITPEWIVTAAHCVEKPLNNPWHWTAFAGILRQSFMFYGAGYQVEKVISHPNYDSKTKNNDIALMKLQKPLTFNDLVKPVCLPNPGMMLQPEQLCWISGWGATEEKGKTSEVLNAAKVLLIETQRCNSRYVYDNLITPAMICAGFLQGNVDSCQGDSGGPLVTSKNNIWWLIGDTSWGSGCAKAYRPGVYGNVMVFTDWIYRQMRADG

[3] = DLS hydrodynamic size and zeta potential of EGTP without and with TMPRSS2; assay type: physicochemical; details: 20 mM EGTP
[4] = system: A549 cells, HeLa cells, and MCF-7-GFP cells; details: 48 h
Procedure: (§1) The TMPRSS2 selective imaging capability of EGTP was tested via the three different cell lines.
Cytotoxicity assay. […] The fluorescence of Resazurin solution at 690 nm using an excitation wavelength of 560 nm was recorded by a SYNERGY H1™ microplate reader (BioTek) with standard operation procedures.

[5] = system: Trypsin; assay: Probe specificity of EGTP with trypsin (fluorescence); assay type: biochemical; details: 200 nM protein
[6] = system: HeLa cells; assay type: cell-based; details: 10 μM probe, 1 h
Procedure: as §1

[7] = system: MCF-7-GFP cells; assay: CLSM imaging of MCF-7-GFP cells (TMPRSS2 high expression); assay type: cell-based; details: 10 μM probe, 1 h
Procedure: (§2) TMPRSS2 selective imaging in cancer cells with EGTP.
(§3) Incubation living cells with probes.
(§4) Confocal laser scanning microscopy.

[8] = system: A549 cells; assay: CLSM imaging of A549 cells (TMPRSS2 low expression); assay type: cell-based; details: 10 μM probe, 1 h
Procedure: as §2, §3, §4

[9] = molecular target: T1, TMPRSS2; assay: Cleavage of probes by recombinant TMPRSS2 (HPLC and ESI-MS); assay type: biochemical; details: incubation for 1 h at 37° C. in 20 mM Tris-HCl buffer (pH 8.0)

| Compound | probe concentration at which obvious yellow fluorescence was observed [1] | fluorescence intensity at 590 nm over time ([2]; 100 nM TMPRSS2, 120 min) | probe specificity: fluorescence intensity with different proteins ([2]; 200 nM proteins, identical conditions) | average hydrodynamic size ([3]; after incubation with TMPRSS2) [nm] | mean zeta potential value ([3]; after incubation with TMPRSS2) [mV] | average hydrodynamic size ([3]; before incubation with TMPRSS2) [nm] | mean zeta potential value ([3]; before incubation with TMPRSS2) [mV] | concentration that can cause significant cytotoxicity [4] [µM] | fluorescence intensity of EGTP with trypsin [5] | yellow fluorescence in HeLa cells [6] | yellow fluorescence in MCF-7-GFP cells [7] | yellow fluorescence in A549 cells [8] | cleavage by TMPRSS2 [9] |
| --- | --- | --- | --- | --- | --- | --- | --- | --- | --- | --- | --- | --- | --- |
| C[C@H](NC(=O)[C@H](CCC(N)=O)NC(=O)CNC(=O)CNC(=O)CNC(=O)[C@H](CCC(=O)O)NC(=O)[C@H](CCC(=O)O)NC(=O)[C@H](CCC(=O)O)NC(=O)[C@H](CCC(=O)O)NC(=O)[C@H](CCC(=O)O)NC(=O)[C@H](CCC(=O)O)NC(=O)[C@H](CCC(=O)O)NC(=O)[C@H](CCC(=O)O)NC(=O)[C@@H](N)CCC(=O)O)C(=O)N[C@@H](CCCNC(=N)N)C(=O)NCC(=O)NCC(=O)N[C@@H](Cc1cn(CCCC[n+]2ccc(/C=C/c3ccc(C(=C(c4ccccc4)c4ccccc4)c4ccccc4)cc3)cc2)nn1)C(N)=O [EGTP] | more than 10 mM | obviously increased | clearly enhanced selectively with TMPRSS2 | 352 | −16.6 | 79 | −23.8 | > 10 | some fluorescence enhancement | weak yellow fluorescence | strong green and yellow fluorescence | almost no yellow fluorescence | can be cleaved by TMPRSS2 |
| TGP: control probe without polyglutamic acid: peptide QARGG (SEQ ID NO:2) linked by Propargylglycine (Pra) to the dye PyTPE (Pra linker, PyTPE dye) | – | – | – | – | – | – | – | > 10 | – | – | – | – | – |

— patent US20250361277A1, “PROTEASE-RESPONSIVE SURFACE-POTENTIAL-TUNABLE PEPTIDE CONSTRUCTS FOR SELECTIVE IMAGING AND ACCURATE INHIBITOR SCREENING” (The Regents of the University of California, priority 2024, published 2025)
